Earlier results, collected in US8298564B2, “Two part antimicrobial boot” (Medtronic, Inc., priority 2006, dated 2012).
At least one compound was matched to its structure with a doubt left.

Settings: with most silicone polymers

For `CN(C)c1ccc(O)c2c1C[C@H]1C[C@H]3[C@H](N(C)C)C(O)=C(C(N)=O)C(=O)[C@@]3(O)C(O)=C1C2=O` [minocycline], the relative elution rate is listed as “faster eluting than rifampin”.
